Results are given in words; binding and its absence hold for the method and conditions named. Binding seen in cells or lysates may run through a third protein. Some entries that bind do so weakly or less than the wild type.
Molecular target: M1 muscarinic acetylcholine receptor fused to Renilla luciferase 8 (human) (UniProt P11229)
Test: FRET or BRET; β-arrestin 2 recruitment in live parental FlpIn CHO cells transiently co-transfected with M1-Rluc8 (10 ng/well) and YFP-β-arrestin 2 (40 ng/well); Hanks' balanced salt solution, 37°C; coelenterazine h 5 μM; increasing ACh with or without allosteric modulator; read 5 min after agonist; BRET ratio YFP/Rluc8 normalised to the maximum ACh response

Protein sequences, listed by entry. Tags and fused reporters are not part of them.
UniProt P11229: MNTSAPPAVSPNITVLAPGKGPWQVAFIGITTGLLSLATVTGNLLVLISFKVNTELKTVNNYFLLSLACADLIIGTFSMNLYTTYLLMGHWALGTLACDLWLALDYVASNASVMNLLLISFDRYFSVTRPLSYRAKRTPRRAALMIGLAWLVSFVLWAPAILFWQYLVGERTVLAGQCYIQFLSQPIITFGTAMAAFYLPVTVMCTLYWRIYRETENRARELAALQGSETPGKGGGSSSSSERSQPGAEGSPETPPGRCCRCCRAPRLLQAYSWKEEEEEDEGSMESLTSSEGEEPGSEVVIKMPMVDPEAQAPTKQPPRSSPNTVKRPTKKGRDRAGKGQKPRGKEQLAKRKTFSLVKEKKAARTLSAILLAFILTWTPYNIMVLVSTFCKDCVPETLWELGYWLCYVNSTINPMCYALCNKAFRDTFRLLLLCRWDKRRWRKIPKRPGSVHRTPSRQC
UniProt P32121: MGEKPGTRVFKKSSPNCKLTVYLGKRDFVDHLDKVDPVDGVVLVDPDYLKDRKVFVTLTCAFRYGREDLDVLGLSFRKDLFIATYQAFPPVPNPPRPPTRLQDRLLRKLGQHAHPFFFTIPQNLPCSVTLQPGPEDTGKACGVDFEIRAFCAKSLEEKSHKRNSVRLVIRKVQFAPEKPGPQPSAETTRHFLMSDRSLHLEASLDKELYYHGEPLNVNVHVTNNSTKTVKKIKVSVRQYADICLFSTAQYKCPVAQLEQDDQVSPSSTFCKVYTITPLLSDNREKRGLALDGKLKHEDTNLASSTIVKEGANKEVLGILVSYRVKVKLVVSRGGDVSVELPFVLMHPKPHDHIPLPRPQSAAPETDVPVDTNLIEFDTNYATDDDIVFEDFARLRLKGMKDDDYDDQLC

binding: binds
Substance: YFP-β-arrestin 2 (from UniProt P32121 1-409)
